These are yes or no findings as the source states them, for the method shown. Binding seen in cells or lysates may run through a third protein. Here binding means that the protein was enriched with, or labelled near, the bait; the list need not be complete. Tags and fused reporters may be left off the sequences shown.
T1: Heme oxygenase 1 (recombinant FLAGHO-1) (human) (UniProt P09601)
T1 sequence: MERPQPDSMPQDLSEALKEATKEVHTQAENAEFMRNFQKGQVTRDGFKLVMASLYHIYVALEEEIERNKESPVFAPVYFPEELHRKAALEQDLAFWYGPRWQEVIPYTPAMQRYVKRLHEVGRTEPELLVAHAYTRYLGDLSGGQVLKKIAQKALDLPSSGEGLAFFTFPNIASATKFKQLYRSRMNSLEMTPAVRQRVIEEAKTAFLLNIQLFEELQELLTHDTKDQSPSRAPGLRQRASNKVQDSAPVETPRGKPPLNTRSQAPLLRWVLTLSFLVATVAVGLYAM


Target: T1, Heme oxygenase 1 (recombinant FLAGHO-1) (human)
Assay: affinity purification with mass spectrometry; PC3 cells transiently transfected with FLAGHO-1 or empty FLAG vector and treated with H2O2 (200 uM); extract in 20 mM Tris, 150 mM NaCl, 5 mM MgCl2, 0.5% NP40, pH 7.5; Flag magnetic beads 2 h at 4 °C; eluted with 3XFLAG peptide; trypsin digest, LC-ESI MS/MS; only proteins differential against the empty FLAG vector were kept

| binding | Binder |
| --- | --- |
| binds | Testis-derived transcript (protein, UniProt Q9UGI8-1 1-421) MDLENKVKKMGLGHEQGFGAPCLKCKEKCEGFELHFWRKICRNCKCGQEEHDVLLSNEEDRKVGKLFEDTKYTTLIAKLKSDGIPMYKRNVMILTNPVAAKKNVSINTVTYEWAPPVQNQALARQYMQMLPKEKQPVAGSEGAQYRKKQLAKQLPAHDQDPSKCHELSPREVKEMEQFVKKYKSEALGVGDVKLPCEMDAQGPKQMNIPGGDRSTPAAVGAMEDKSAEHKRTQYSCYCCKLSMKEGDPAIYAERAGYDKLWHPACFVCSTCHELLVDMIYFWKNEKLYCGRHYCDSEKPRCAGCDELIFSNEYTQAENQNWHLKHFCCFDCDSILAGEIYVMVNDKPVCKPCYVKNHAVVCQGCHNAIDPEVQRVTYNNFSWHASTECFLCSCCSKCLIGQKFMPVEGMVFCSVECKKRMS |
| binds | Thyroid hormone receptor-associated protein 3 (protein, UniProt Q9Y2W1 1-955) MSKTNKSKSGSRSSRSRSASRSRSRSFSKSRSRSRSLSRSRKRRLSSRSRSRSYSPAHNRERNHPRVYQNRDFRGHNRGYRRPYYFRGRNRGFYPWGQYNRGGYGNYRSNWQNYRQAYSPRRGRSRSRSPKRRSPSPRSRSHSRNSDKSSSDRSRRSSSSRSSSNHSRVESSKRKSAKEKKSSSKDSRPSQAAGDNQGDEAKEQTFSGGTSQDTKASESSKPWPDATYGTGSASRASAVSELSPRERSPALKSPLQSVVVRRRSPRPSPVPKPSPPLSSTSQMGSTLPSGAGYQSGTHQGQFDHGSGSLSPSKKSPVGKSPPSTGSTYGSSQKEESAASGGAAYTKRYLEEQKTENGKDKEQKQTNTDKEKIKEKGSFSDTGLGDGKMKSDSFAPKTDSEKPFRGSQSPKRYKLRDDFEKKMADFHKEEMDDQDKDKAKGRKESEFDDEPKFMSKVIGANKNQEEEKSGKWEGLVYAPPGKEKQRKTEELEEESFPERSKKEDRGKRSEGGHRGFVPEKNFRVTAYKAVQEKSSSPPPRKTSESRDKLGAKGDFPTGKSSFSITREAQVNVRMDSFDEDLARPSGLLAQERKLCRDLVHSNKKEQEFRSIFQHIQSAQSQRSPSELFAQHIVTIVHHVKEHHFGSSGMTLHERFTKYLKRGTEQEAAKNKKSPEIHRRIDISPSTFRKHGLAHDEMKSPREPGYKAEGKYKDDPVDLRLDIERRKKHKERDLKRGKSRESVDSRDSSHSRERSAEKTEKTHKGSKKQKKHRRARDRSRSSSSSSQSSHSYKAEEYTEETEEREESTTGFDKSRLGTKDFVGPSERGGGRARGTFQFRARGRGWGRGNYSGNNNNNSNNDFQKRNREEEWDPEYTPKSKKYYLHDDREGEGSDKWVSRGRGRGAFPRGRGRFMFRKSSTSPKWAHDKFSGEEGEIEDDESGTENREEKDNIQPTTE |
| binds | Tropomodulin 3 (protein, UniProt Q9NYL9 1-352) MALPFRKDLEKYKDLDEDELLGNLSETELKQLETVLDDLDPENALLPAGFRQKNQTSKSTTGPFDREHLLSYLEKEALEHKDREDYVPYTGEKKGKIFIPKQKPVQTFTEEKVSLDPELEEALTSASDTELCDLAAILGMHNLITNTKFCNIMGSSNGVDQEHFSNVVKGEKILPVFDEPPNPTNVEESLKRTKENDAHLVEVNLNNIKNIPIPTLKDFAKALETNTHVKCFSLAATRSNDPVATAFAEMLKVNKTLKSLNVESNFITGVGILALIDALRDNETLAELKIDNQRQQLGTAVELEMAKMLEENTNILKFGYQFTQQGPRTRAANAITKNNDLVRKRRVEGDHQ |
| binds | Aspartyl beta-hydroxylase (protein, UniProt Q12797 1-758) MAQRKNAKSSGNSSSSGSGSGSTSAGSSSPGARRETKHGGHKNGRKGGLSGTSFFTWFMVIALLGVWTSVAVVWFDLVDYEEVLGKLGIYDADGDGDFDVDDAKVLLGLKERSTSEPAVPPEEAEPHTEPEEQVPVEAEPQNIEDEAKEQIQSLLHEMVHAEHVEGEDLQQEDGPTGEPQQEDDEFLMATDVDDRFETLEPEVSHEETEHSYHVEETVSQDCNQDMEEMMSEQENPDSSEPVVEDERLHHDTDDVTYQVYEEQAVYEPLENEGIEITEVTAPPEDNPVEDSQVIVEEVSIFPVEEQQEVPPETNRKTDDPEQKAKVKKKKPKLLNKFDKTIKAELDAAEKLRKRGKIEEAVNAFKELVRKYPQSPRARYGKAQCEDDLAEKRRSNEVLRGAIETYQEVASLPDVPADLLKLSLKRRSDRQQFLGHMRGSLLTLQRLVQLFPNDTSLKNDLGVGYLLIGDNDNAKKVYEEVLSVTPNDGFAKVHYGFILKAQNKIAESIPYLKEGIESGDPGTDDGRFYFHLGDAMQRVGNKEAYKWYELGHKRGHFASVWQRSLYNVNGLKAQPWWTPKETGYTELVKSLERNWKLIRDEGLAVMDKAKGLFLPEDENLREKGDWSQFTLWQQGRRNENACKGAPKTCTLLEKFPETTGCRRGQIKYSIMHPGTHVWPHTGPTNCRLRMHLGLVIPKEGCKIRCANETKTWEEGKVLIFDDSFEHEVWQDASSFRLIFIVDVWHPELTPQQRRSLPAI |

From article PMC5261017
